The text below walks through data of article PMC4123598.

Amino acid sequences for entries named in this document (tags omitted).
UniProt Q96AE4: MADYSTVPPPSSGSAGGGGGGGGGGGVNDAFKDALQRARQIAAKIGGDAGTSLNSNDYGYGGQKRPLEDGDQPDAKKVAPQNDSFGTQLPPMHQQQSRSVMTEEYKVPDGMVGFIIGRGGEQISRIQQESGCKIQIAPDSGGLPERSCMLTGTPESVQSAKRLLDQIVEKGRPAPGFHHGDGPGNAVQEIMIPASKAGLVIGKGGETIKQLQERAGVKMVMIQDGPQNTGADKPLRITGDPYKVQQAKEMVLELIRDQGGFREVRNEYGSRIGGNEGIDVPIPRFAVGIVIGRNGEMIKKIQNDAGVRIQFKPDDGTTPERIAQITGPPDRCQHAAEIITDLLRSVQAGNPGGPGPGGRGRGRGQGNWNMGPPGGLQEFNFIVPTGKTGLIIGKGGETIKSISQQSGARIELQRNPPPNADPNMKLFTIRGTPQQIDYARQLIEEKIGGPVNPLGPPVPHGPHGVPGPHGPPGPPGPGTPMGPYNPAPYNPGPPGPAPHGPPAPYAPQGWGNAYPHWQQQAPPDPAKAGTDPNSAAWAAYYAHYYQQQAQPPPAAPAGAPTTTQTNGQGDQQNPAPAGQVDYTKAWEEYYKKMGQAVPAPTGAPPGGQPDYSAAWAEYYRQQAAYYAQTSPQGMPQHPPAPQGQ

Results are given in words; binding and its absence hold for the method and conditions named. Binding seen in cells or lysates may run through a third protein. Some binding calls cover weakened binding; strength is not graded here. For part of these data: Sequences can lack the tags named with a protein.

Assay [1] addresses T1, menin (expressed from a transfected plasmid in HEK293 cells) (UniProt O00255).
T1 sequence: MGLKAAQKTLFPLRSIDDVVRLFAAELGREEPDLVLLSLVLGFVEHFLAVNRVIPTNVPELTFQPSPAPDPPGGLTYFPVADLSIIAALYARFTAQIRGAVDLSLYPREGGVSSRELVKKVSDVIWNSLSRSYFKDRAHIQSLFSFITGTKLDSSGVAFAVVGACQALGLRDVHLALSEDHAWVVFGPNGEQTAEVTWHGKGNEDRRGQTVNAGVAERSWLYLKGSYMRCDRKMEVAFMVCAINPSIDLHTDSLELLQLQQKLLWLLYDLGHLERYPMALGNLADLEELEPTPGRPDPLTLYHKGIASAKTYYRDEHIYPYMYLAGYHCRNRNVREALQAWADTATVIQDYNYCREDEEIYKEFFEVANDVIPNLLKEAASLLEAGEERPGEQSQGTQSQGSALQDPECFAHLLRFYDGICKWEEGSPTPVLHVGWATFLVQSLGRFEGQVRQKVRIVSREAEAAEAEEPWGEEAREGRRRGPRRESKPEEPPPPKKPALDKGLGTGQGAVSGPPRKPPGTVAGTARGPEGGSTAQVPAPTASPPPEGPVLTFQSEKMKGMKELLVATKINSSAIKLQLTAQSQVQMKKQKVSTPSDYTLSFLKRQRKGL
Briefly: co-IP; menin immunoprecipitated (goat antibody from Bethyl, protein G agarose) from whole cell extracts of HEK293 cells transfected with menin and FBP1 plasmids; NP-40(2) buffer (150 mM NaCl, 1% TritonX-100, 50 mM Tris), 4°C; immunoblot for FBP1; IgG as control. (A western blot detects proteins with antibodies after separation by electrophoresis.)

For assay [2], the target named is Flag-BAP (bacterial alkaline phosphatase) [phosphatase: P00634]. Briefly: pull-down; Flag-menin or Flag-BAP beads (equal concentrations, purified from bacterial cells) incubated with whole cell lysates of HEK293 cells transfected with FBP1 plasmid, 4°C overnight; washed with 0.1% Triton in 1X PBS; immunoblot for FBP1; only the target purified.
Assay [3] addresses T2, Flag-menin (UniProt O00255).
T2 sequence: T1 sequence
The assay is described as above.

In the case of “FBP1 (expressed from a transfected plasmid in HEK293 cells) (from UniProt Q96AE4 1-644)”, the binding result in assay [1] was “binds”; in assay [2], “no binding”; in assay [3], “binds”.
